Results reported in paper PMC9005681, “Use of AD Informer Set compounds to explore validity of novel targets in Alzheimer's disease pathology” (Alzheimer's & Dementia : Translational Research & Clinical …, 2022).
Counter-ions that a name gives are not always drawn.

Tests used:
[1] = system: BV2 (mouse microglia) immortalized cell line; assay: Microglial cell viability (cell count, nuclear measures), BV2; assay type: cell-based; conditions: 10-point dose-response up to 20 or 40 μM, 24 or 48 h
Experimental: Microglial viability and phagocytosis studies: The pHrodo-myelin phagocytosis/cell viability assay, modified based on a published method, was run with BV2 (mouse microglia) and HMC3 (human microglia) immortalized cell lines in the Chu lab at IUSM. The 384-well plate high content analysis assay with BV2 and HMC3 microglial cell lines is used to quantify phagocytosis and cell viability simultaneously. High content imaging is performed with the ArrayScan automatic imaging system and imaging analysis done with the system’s software. Cells are treated with compounds for total 48 hours including final 20 hours seeded with pHrodo-myelin (labeled phagocytosis ligand, purified from mouse brain), then cells are stained with Hoechst- […]
Three measurements are extracted from the assay: 1) phagocytosis signal by mean total phagocytosis spot intensity per cell, 2) total cell counts per well as the main measurement of cell viability, and 3) mean average nuclear intensity per cell as profiling of cell health since apoptotic cells showing nuclear intensity increase (early apoptosis) and decrease (later apoptosis), respectively. […]
dose-response follow-up in duplicate or triplicate. These compounds were initially dosed up to […]

[2] = pH 7.4; cited from earlier work

COc1cc2c(cc1OC)C(=O)C(CC1CCN(Cc3ccccc3)CC1)C2 (centres unmarked) [UNC10240506B, Donepezil Hydrochloride (E2020)]
Toxicity in dose-response follow-up, BV2 [1]: toxicity limited only to the 40 μM dose | Kinetic solubility [2]: 174.6 µM
